According to PMC10635659:
These are yes or no findings as the source states them, for the method shown. In cells and extracts the contact can be indirect. A yes stands for co-enrichment or nearness to the bait. Other partners may have been found.

Sequences of proteins named here, by UniProt entry; tags and fusion partners are left off.
UniProt Q8WUY9: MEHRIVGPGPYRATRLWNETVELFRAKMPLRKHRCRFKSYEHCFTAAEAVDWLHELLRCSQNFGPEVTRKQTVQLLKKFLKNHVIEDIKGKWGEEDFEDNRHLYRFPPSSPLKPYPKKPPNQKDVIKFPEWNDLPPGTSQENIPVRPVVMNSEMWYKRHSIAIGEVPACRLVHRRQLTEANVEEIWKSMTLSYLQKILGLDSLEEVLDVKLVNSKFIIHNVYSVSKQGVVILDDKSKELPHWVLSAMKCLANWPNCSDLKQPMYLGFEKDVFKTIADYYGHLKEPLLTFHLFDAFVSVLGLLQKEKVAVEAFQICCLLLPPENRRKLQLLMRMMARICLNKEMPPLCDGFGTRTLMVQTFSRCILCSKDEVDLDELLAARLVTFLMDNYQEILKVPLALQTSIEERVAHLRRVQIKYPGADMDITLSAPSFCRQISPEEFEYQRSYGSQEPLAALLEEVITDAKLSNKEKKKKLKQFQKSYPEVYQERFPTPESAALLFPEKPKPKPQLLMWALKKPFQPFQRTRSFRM
UniProt P45974: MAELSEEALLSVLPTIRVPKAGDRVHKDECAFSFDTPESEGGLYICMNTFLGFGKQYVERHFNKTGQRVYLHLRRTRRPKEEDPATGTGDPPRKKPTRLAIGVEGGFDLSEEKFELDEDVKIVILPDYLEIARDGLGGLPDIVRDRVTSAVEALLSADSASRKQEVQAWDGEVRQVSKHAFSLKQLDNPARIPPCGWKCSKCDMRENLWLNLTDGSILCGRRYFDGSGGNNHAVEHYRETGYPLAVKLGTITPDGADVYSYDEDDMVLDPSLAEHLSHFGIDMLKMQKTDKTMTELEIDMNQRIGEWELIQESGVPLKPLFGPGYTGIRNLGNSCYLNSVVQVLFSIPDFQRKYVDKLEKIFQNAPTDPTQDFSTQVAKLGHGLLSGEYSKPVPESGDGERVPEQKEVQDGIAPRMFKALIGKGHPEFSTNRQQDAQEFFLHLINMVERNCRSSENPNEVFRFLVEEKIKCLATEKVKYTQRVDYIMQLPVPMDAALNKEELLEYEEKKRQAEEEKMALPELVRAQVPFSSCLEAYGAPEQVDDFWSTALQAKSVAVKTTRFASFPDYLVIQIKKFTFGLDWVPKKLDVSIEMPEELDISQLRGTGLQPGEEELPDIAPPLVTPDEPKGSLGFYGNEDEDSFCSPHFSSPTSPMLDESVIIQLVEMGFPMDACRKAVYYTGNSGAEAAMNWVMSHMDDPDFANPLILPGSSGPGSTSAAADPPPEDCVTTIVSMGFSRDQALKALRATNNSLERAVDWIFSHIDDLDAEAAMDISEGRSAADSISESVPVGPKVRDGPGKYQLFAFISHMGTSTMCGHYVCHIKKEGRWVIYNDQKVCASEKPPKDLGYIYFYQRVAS
UniProt P35222: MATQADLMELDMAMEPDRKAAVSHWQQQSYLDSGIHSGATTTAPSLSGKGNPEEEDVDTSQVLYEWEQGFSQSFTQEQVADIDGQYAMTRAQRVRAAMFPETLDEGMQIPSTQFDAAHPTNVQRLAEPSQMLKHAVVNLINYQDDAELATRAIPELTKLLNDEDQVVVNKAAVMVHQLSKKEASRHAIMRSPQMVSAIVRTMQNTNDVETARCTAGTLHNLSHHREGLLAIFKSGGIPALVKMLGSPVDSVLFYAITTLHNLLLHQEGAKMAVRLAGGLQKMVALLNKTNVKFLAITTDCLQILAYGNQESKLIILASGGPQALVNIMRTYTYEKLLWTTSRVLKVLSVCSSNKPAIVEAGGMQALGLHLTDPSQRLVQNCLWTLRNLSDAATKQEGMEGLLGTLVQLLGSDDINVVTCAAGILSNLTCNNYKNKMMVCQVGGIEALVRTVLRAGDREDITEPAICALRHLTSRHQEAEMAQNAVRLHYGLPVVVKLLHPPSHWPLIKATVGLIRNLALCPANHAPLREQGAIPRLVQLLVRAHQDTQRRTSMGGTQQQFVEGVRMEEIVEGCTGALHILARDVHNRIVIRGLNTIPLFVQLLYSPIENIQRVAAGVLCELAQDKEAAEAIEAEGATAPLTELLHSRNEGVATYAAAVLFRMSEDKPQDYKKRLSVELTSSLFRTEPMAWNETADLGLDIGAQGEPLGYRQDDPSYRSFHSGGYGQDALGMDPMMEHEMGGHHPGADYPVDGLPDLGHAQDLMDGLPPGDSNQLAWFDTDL

Target: FLAG-DEPDC1B (DEP domain-containing protein 1B), expressed in HEK-293T cells (human) (UniProt Q8WUY9)
Experiment: affinity purification with mass spectrometry; Vector or FLAG-DEPDC1B plasmid transfected into HEK-293T cells; extracted proteins analysed by mass spectrometry (Shanghai Bioprofile); how the bait was isolated is not told

Row | binding | Substance
1 | binds | ubiquitin-specific protease 5 (USP5), endogenous in HEK-293T cells (from UniProt P45974 1-858) (enzyme)
2 | binds | β-catenin, endogenous in HEK-293T cells (from UniProt P35222 1-781)
